Results: the supplement of paper PMC7024190
The other results are listed elsewhere or left out. Repeats in this data set agree poorly, so a single value says little.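 Human embryonic kidney cells were transiently transfected with a plasmid bearing a Renilla luciferase gene under the HSV-TK promoter. This first-round screen tests roughly ten thousand compounds for ones that increase reporter output.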

Tested on: HEK 293FT
Assay: log relative Renilla luciferase luminescence (reporter expression vs reference, reference not stated) (log (base not stated)); higher = higher recombinant reporter expression
Settings: 10 µM; time after transfection 48 h
Experimental: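 HEK 293FT cells transiently transfected with pRL-TK (Renilla luciferase) were treated with compounds at 10 uM and luminescence was read about 42 h later. Values are log relative Renilla luminescence (log base and reference not stated). Single-pass screen; 2080 natural products library.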

Structure (SMILES)	log
C/C(=C\C=C\[C@@]1(C)OC(=O)[C@]23CC=C(C(=O)O)CC[C@]2(O)[C@H]1CC3)C(=O)O [Demethoxydeacetoxypseudolaric acid B]	0.142
CC1(C)CCC[C@]2(C)[C@@H]1C[C@H](O)[C@@]13C[C@@H](CC[C@@H]21)[C@@](O)(COC(=O)Cc1ccccc1)C3 [Sculponeatin O]	-0.413
CCC1=N[C@H]2C[C@@]3(C(=O)N(OC)c4ccccc43)[C@H]3CC1[C@@H]2CO3 [Humantenmine]	-0.744
N#C/C(=C\CO[C@@H]1O[C@H](CO)[C@@H](O)[C@H](O)[C@H]1O)CO [Sarmentosin]	0.15
C=C(C)[C@H]1[C@H]2OC(=O)[C@@H]1[C@@]1(O)[C@H]3O[C@H]3[C@]3(CO3)[C@]1(C)[C@@H]2O [Tutin]	0.0647
COC1=CC23CCN(C)C(Cc4ccc(OC)c(O)c42)C3=CC1=O (stereo not drawn) [Sinoacutine]	-0.0636
C/C=C1/CN2[C@@H]3C[C@@]45c6ccccc6N[C@]4(O3)[C@@H]2C[C@@H]1[C@H]5C(=O)OC [Picrinine]	-0.186
CC1(C)O[C@@H]1COc1c2occc2cc2ccc(=O)oc12 [Heraclenin]	-0.0633
C=C(C)[C@@H]1[C@H]2OC(=O)[C@@H]1[C@]1(O)[C@H]3O[C@H]3[C@]3(O)CO[C@H]2[C@]13C [Corianin]	-0.795
COc1ccc2c(c1)[nH]c1c(C)nccc12 [Harmine]	-0.293
C/C=C1/CN2[C@@H]3C[C@@]45c6ccccc6N(COC)[C@]4(O3)[C@@H]2CC1C5C(=O)OC (stereo partly drawn) [N1-methoxymethyl picrinine]	-0.227
O=C1c2ccccc2-c2c3c(cc4ccnc1c24)OCO3 [Liriodenine]	-0.195
COc1cc2ccc(=O)oc2c2ccoc12 [Sphondin]	0.00461
Cc1cc2c(O)c3c(c(O)c2o1)[C@@]1(C)CCC(=O)C(C)(C)C1=C(O)C3=O [Teuvincenone H]	0.0294
COC(=O)N1c2ccccc2[C@]23CC(=O)C[C@@]4(CCCN(C=O)[C@@H]42)CC[C@]13C(=O)OC [11,12-De(methylenedioxy)danuphylline]	0.0634
C/C=C1\CN(C)[C@H]2C[C@@]3(C(=O)N(OC)c4ccccc43)[C@H]3C[C@@H]1[C@@H]2CO3 [Humantenine]	-0.0825
C=C[C@@H](O)C#CC#C[C@@H](O)/C=C\CCCCCCCCOC(C)=O	0.181
CC=C1CN2C3CC1C(CO)(C(=O)OC)C2Cc1c3[nH]c2ccccc12 (stereo not drawn) [(Z)-Akuammidine]	-0.0767

Some of these compounds in order of molecular weight, smallest number first:
Structure (SMILES)	log
COC1=CC23CCN(C)C(Cc4ccc(OC)c(O)c42)C3=CC1=O (stereo not drawn) [Sinoacutine]	-0.0636
Cc1cc2c(O)c3c(c(O)c2o1)[C@@]1(C)CCC(=O)C(C)(C)C1=C(O)C3=O [Teuvincenone H]	0.0294
C/C(=C\C=C\[C@@]1(C)OC(=O)[C@]23CC=C(C(=O)O)CC[C@]2(O)[C@H]1CC3)C(=O)O [Demethoxydeacetoxypseudolaric acid B]	0.142
